Test results published in the supplement of paper PMC6690932.
“And” between values parts separate entries of the source, which are not always exact repeats. Identical values can stand only once. ± gives the standard deviation of the averaged measurements. Some of the results follow. Single values are uncertain, as repeats are few or missing.

Tested on: HeLa
Experiment: lysosomal-METRIQ red/green fluorescence ratio relative to DMSO (ratio to DMSO); higher = higher lysosomal activity / lysosomal biogenesis
Settings: 10 µM; 12 h

Row | SMILES | lysosomal-METRIQ red/green fluorescence ratio
1 | C=C1[C@@H](C)[C@H]2[C@H](Cc3ccccc3)NC(=O)[C@]23[C@H](OC(C)=O)/C=C/[C@@](C)(O)C(=O)[C@@H](C)C/C=C/[C@H]3[C@@H]1O [Cytochalasin D] | 0.871
2 | C/C(O)=C(\C#N)C(=O)Nc1cc(Br)ccc1Br | 1.05 ± 0.064
3 | CC1=C2C[C@H]3[C@@H](CC=C4C[C@@H](O)CC[C@@]43C)[C@@H]2CC[C@]12O[C@@H]1C[C@H](C)CN[C@H]1[C@H]2C [cyclopamine] | 1.18
4 | CC(=O)N[C@H]1[C@@H](O[C@@H]2O[C@H](CC(O)[C@H]3O[C@@H](n4ccc(=O)[nH]c4=O)[C@H](O)[C@@H]3O)[C@H](O)[C@H](O)[C@H]2NC(=O)/C=C/CC(C)C)O[C@H](CO)[C@@H](N)[C@@H]1O (stereo partly specified) [Tunicamycin] | 0.913
5 | CO[C@@H]1C[C@@H](C[C@H]2CC[C@H](C)[C@H]([C@@H](C)C(=O)O)O2)O[C@]2(O[C@](C)([C@H]3CC[C@@](C)([C@@H]4O[C@@H]([C@H]5O[C@@](O)(CO)[C@H](C)C[C@@H]5C)C[C@@H]4C)O3)C[C@H]2C)[C@@H]1C [Nigericin] | 1.28
6 | CC(C)(c1ccc(OCC2CO2)cc1)c1ccc(OCC2CO2)cc1 (stereo unspecified) | 1
7 | CC(C)(C)c1cc(C=C(C#N)C#N)cc(Br)c1O | 1.03 ± 0.044
8 | O=C1NC(=O)c2c1c1c3ccccc3n3c1c1c2c2ccccc2n1[C@H]1CC[C@@H]3O1 | 2.09 and 2.18
9 | NC(=S)N/N=C\c1coc2ccccc2c1=O.[Cl][Cu][Cl] [Akt Inhibitor XI] | 1
10 | N[C@@H]1C[C@H]1c1cc(F)cc(F)c1OCc1ccccc1 [S2101 (LSD1 inhibitor II)] | 0.773
11 | O=C1Nc2ccccc2C2(CCN(CCc3ccc(C(F)(F)F)cc3)CC2)O1 | 0.88
12 | C[C@@]1(CO)[C@H](O)CC[C@@]2(C)[C@H]1CC[C@H]1C[C@@H]3C[C@@]12CC[C@]3(O)CO [Aphidicolin] | 1.15
13 | O=C1C2CCN(CC2)C1(CO)CO | 1
14 | C[C@@]12C(=O)OC(=O)[C@]1(C)[C@H]1CC[C@@H]2O1 [Cantharidin] | 0.867
15 | CC[C@@]1([C@@H]2O[C@@H]([C@H]3O[C@@](O)(CO)[C@H](C)C[C@@H]3C)C[C@@H]2C)CC[C@H]([C@]2(C)CC[C@]3(C[C@H](O)[C@@H](C)[C@@H]([C@@H](C)[C@@H](OC)[C@H](C)C(=O)O)O3)O2)O1 [Monensin] | 0.88
16 | CN(N=O)c1cc(O)ccc1O [Dephostatin] | 1.07
17 | O=C(O)c1nn(Cc2ccc(Cl)cc2Cl)c2ccccc12 [Lonidamine] | 1.04
18 | CC(C)[C@@H]1NC(=O)[C@H](C)OC(=O)[C@@H](C(C)C)NC(=O)[C@@H](C(C)C)OC(=O)[C@H](C(C)C)NC(=O)[C@H](C)OC(=O)[C@@H](C(C)C)NC(=O)[C@@H](C(C)C)OC(=O)[C@H](C(C)C)NC(=O)[C@H](C)OC(=O)[C@@H](C(C)C)NC(=O)[C@@H](C(C)C)OC1=O [Valinomycin] | 1.24
19 | Cc1sc2c(c1C)C(c1ccc(Cl)cc1)=N[C@@H](CC(=O)OC(C)(C)C)c1nnc(C)n1-2 | 0.955
20 | CN1C(=O)CN=C(c2ccc(Cl)cc2)c2cc(Cl)ccc21 | 1.17
21 | C[C@H]1CCC/C=C/[C@@H]2C[C@H](O)C[C@H]2[C@H](O)/C=C/C(=O)O1 [brefeldin A] | 0.364
